The record followed here is article PMC8938504.

Protein sequences, listed by entry. Tags and fused reporters are not part of them. Lines headed by an entry give the natural chain unless they say otherwise; changes in a name come on top. Chains listed by the source or under a name are the forms on record and can include a tag or linker.
MBP:RGA5_HMAm1m2 (F7J0N2, form named): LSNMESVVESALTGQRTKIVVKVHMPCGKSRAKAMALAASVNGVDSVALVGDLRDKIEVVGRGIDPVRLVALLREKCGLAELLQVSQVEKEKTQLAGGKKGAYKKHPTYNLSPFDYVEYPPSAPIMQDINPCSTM

The target in this assay is MBP:RGA5_HMAm1m2 (rice (Oryza sativa)) (UniProt F7J0N2). Kind of assay: SEC; both purified. For orientation: Size exclusion chromatography separates by hydrodynamic size, large species first.

Results are given in words; binding and its absence hold for the method and conditions named.

For the substance “MBP:RGA5_HMAm1m2 (from UniProt F7J0N2) (domain or fragment)”, the binding entry was “no binding (tested: about 2 mg/mL)”.
